This is one part of the list. Shown are side measurements of this screen, not its main read-out; they come without a call. Most of these compounds were active or inconclusive in the main read-out, so they are no random draw. Words in brackets tell the shape of the fitted curve; partial curves, single points and poor fits give uncertain potencies.
Assay: qHTS Assay to Find Inhibitors of Chronic Active B-Cell Receptor Signaling
Conditions: ABC-DLBCL IkBa-CBG/CBR reporter, luminescence ratio (green luciferase fused to IkBa over red control in TMD8 lymphoma cells), 4 h
How it was run: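 TMD8 human ABC-DLBCL cells with doxycycline-inducible IκBα–green luciferase fusion and unfused red luciferase, in 0.5% FBS medium; compounds up to 46 uM, 4 h at 37C. Green/red luminescence ratio, filter-overlap corrected, fitted to concentration-response curves.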

[1] = measured here: CBR red luminescence, cell number
[2] = measured here: IkBa-CBG green luminescence

Row | Compound | AC50 [1] | AC50 [2]
1 | COc1ccc(COc2cc(-c3cccc(OC)c3)nc3ccc(NC(=O)c4ccc(N(C)C)cc4)cc23)cc1 | 29.1 µM [rising, single point] | 20.6 µM [falling, single point]
2 | COc1cc(/C=N/NC(=O)c2ccccc2Cl)ccc1Oc1ccc([N+](=O)[O-])cn1 | 11.2 µM [falling, single point] | –
3 | Cc1ccc2nsnc2c1S(=O)(=O)N1CCN(C(=O)C2CCCO2)CC1 (stereo unspecified) | 18.4 µM [rising, partial curve, poor fit] | –
4 | O=C(O)CNS(=O)(=O)c1cccc2nsnc12 | 4.61 µM [rising, full curve, poor fit] | –
5 | Cc1nn(C)cc1CN1CCC(n2nccc2NC(=O)CCCc2ccccc2)CC1 | 1.26 µM [rising, full curve] | –
6 | CCn1c(/C=N/Nc2ccc(C(=O)O)cc2)nc2ccccc21 | 0.0259 µM [falling, full curve, poor fit] | 1.03 µM [rising, full curve, poor fit]
7 | NC(=O)C1CC12c1ccccc1-c1ccccc12 (stereo unspecified) | 4.47 µM [rising, partial curve, poor fit] | –
8 | Cc1ccc(C(=O)OCc2cc(=O)n3c(C)csc3n2)s1 | 4.11 µM [rising, partial curve] | –
9 | COc1ccc(-c2cc(C(=O)N3CCOCC3)c3cc(C)ccc3n2)cc1 | 0.058 µM [falling, full curve, poor fit] | –
10 | CNC(=O)c1ccc(NC(=O)CN2c3cccc4cccc(c34)S2(=O)=O)cc1 | 14.6 µM [rising, partial curve] | –
11 | Cc1ccc(CN2CCC(N3CCC(C(=O)NCC4CCCO4)CC3)CC2)o1 (stereo unspecified) | 35.5 µM [falling, single point] | –
12 | O=C(N[C@H]1C/C=C\C[C@H](CC(=O)N(CCO)Cc2ccccc2)C(=O)NC[C@H](c2ccccc2)OC1=O)OCC1c2ccccc2-c2ccccc21 | 2.59 µM [falling, single point] | –
13 | O=C(CSc1n[nH]c(-c2ccc(S(=O)(=O)NC3CCCCC3)cc2)n1)N1CCCC1 | 35.5 µM [falling, partial curve, poor fit] | –
14 | CCOC(=O)CNC(=O)c1nn(-c2cccc(OC)c2)c(=O)c2ccccc12 | 5.8 µM [rising, partial curve, poor fit] | –
15 | C/C(=N\NC(=O)c1cc(C)nc2ccccc12)c1ccco1 | 35.5 µM [rising, single point] | 35.5 µM [falling, single point]
16 | COCCNC(=O)c1onc(CCl)c1C(=O)OC | 22.4 µM [falling, single point] | –
17 | Cc1ccccc1C(=O)NCC(=O)OC(C)C(=O)NC(C)CCc1ccccc1 (stereo unspecified) | 9.2 µM [rising, partial curve, poor fit] | –
18 | CCOc1ccccc1NC(=O)C1Cc2ccccc2CN1S(C)(=O)=O (stereo unspecified) | 35.5 µM [rising, single point] | –
19 | COC(=O)C1CCN(C(=O)C23CCC(C)(C(=O)O2)C3(C)C)CC1 (stereo unspecified) | 0.731 µM [falling, full curve, poor fit] | –

Row | Compound | AC50 [1] | AC50 [2]
20 | COc1cc(CC(=O)OCC(=O)Nc2ccc(N(C)C)cc2)cc(OC)c1OC | 10.3 µM [rising, partial curve, poor fit] | –
21 | COc1ccc(-c2c(C)nc3c(-c4ccccn4)cnn3c2N)cc1 | 2 µM [rising, full curve, poor fit] | –
22 | CCOc1cc(CNc2ccc3c(c2)CCC3)ccc1O | 25.9 µM [rising, partial curve, poor fit] | –
23 | CN(C)N1C(N)=C(C#N)C(c2ccc(F)cc2)C2=C1CCCC2=O (stereo unspecified) | 5.62 µM [falling, single point] | –
24 | CC1=Nc2ccccc2N=C(NC(=O)CSC(=S)N2CCCCC2)C1c1ccccc1 (stereo unspecified) | 11.2 µM [falling, single point] | –
25 | Cc1ccc(C(=O)Nc2sc(C)c(-c3ccccc3)c2C(N)=O)cc1[N+](=O)[O-] | 12.6 µM [rising, partial curve, poor fit] | –
26 | COc1ccc2c(Cl)c(C(=O)N/N=C/c3c(C)[nH]c4ccccc34)sc2c1 | 18.4 µM [falling, single point] | –
27 | O=C(Cc1ccc(F)cc1)Nc1nc(-c2ccc(F)c(F)c2)cs1 | 31.6 µM [falling, single point] | –
28 | CCSc1nc2n(n1)C(c1ccc(Cl)cc1Cl)C(C(=O)Nc1ccccc1C)=C(C)N2 (stereo unspecified) | 15.8 µM [falling, partial curve, poor fit] | –
29 | CC[C@]12c3[nH]c4cc(CCC(=O)N(C)C)ccc4c3CCN1C(=O)[C@@H](CC(=O)NCc1cccc(C(F)(F)F)c1)C[C@@H]2C(=O)N1CCN(C(=O)c2ccco2)CC1 | 18.4 µM [rising, single point] | 18.4 µM [falling, single point]
30 | COc1ccc(NC(=O)C/C(C)=N/NC(=O)c2ccccn2)c(OC)c1 | 7.94 µM [falling, partial curve, poor fit] | –
31 | COc1cc(NC(C(=O)Nc2cccc(C(C)=O)c2)c2ccccc2)cc(OC)c1OC (stereo unspecified) | 20.6 µM [rising, single point] | –
32 | Cc1ccc(-n2ccn(CC(=O)NCCc3ccccc3)c(=O)c2=O)cc1C | 2.51 µM [falling, full curve] | –
33 | CCc1ccc2[nH]c(=O)c(C(c3nnnn3CCOC)N3CCN(c4ccc(F)cc4)CC3)cc2c1 (stereo unspecified) | 29.1 µM [falling, single point] | –
34 | CCOC(=O)c1c(CNCc2ccccc2F)c2sc(C)cc2n1C | 5.8 µM [rising, partial curve, poor fit] | –
35 | Cc1ccccc1Nc1nc(-c2cccnc2)cs1 | 35.5 µM [falling, single point] | –
36 | OCCCN1c2ccccc2Nc2nnc(-c3ccccc3)cc21 | 7.94 µM [falling, partial curve] | –
37 | Cc1ccc(C(=O)OCCN(C)Cc2ccccc2)cc1 | 12.6 µM [rising, partial curve, poor fit] | –

Structures above that contain a nitro group on carbon:
Row | Compound | AC50 [1] | AC50 [2]
2 | COc1cc(/C=N/NC(=O)c2ccccc2Cl)ccc1Oc1ccc([N+](=O)[O-])cn1 | 11.2 µM [falling, single point] | –
25 | Cc1ccc(C(=O)Nc2sc(C)c(-c3ccccc3)c2C(N)=O)cc1[N+](=O)[O-] | 12.6 µM [rising, partial curve, poor fit] | –
